Source: publication PMC12313917
No constants are given. Whether binding was seen depends on the method and setting. Binding seen in cells or lysates may run through a third protein. Some binding calls cover weakened binding; strength is not graded here. For some assays here: Sequences can lack the tags named with a protein.

The chains behind the UniProt entries cited, without tags or fusion partners. Residues count along the entry.
UniProt P53994: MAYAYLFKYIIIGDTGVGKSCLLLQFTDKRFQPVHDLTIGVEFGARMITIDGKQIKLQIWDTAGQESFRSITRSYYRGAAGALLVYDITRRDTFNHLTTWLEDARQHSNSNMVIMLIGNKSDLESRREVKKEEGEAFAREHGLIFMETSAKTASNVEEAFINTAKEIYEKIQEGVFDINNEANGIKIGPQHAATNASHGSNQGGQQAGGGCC
UniProt Q9EPL4, residues 19-318: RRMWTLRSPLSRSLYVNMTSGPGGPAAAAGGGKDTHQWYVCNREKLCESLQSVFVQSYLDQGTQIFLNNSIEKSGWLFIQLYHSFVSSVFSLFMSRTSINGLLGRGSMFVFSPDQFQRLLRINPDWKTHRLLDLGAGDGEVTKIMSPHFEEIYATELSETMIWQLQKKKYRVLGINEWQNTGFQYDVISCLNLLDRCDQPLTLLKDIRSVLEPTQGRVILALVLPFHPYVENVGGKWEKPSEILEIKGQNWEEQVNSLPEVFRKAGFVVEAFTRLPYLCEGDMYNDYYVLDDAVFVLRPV

Legend:
[1] = target: T1, STMN1-HA (mouse) (UniProt P54227); experiment: co-IP; co-expression in WT E14 mESCs for 48 hrs; IP with cross-linked anti-HA magnetic beads against mouse IgG control, over-night; WB with anti-FLAG and anti-HA
T1 sequence: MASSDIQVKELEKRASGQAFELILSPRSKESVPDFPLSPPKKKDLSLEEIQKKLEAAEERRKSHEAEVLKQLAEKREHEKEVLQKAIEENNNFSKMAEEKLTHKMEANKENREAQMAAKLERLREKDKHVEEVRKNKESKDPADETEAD

[2] = target: HA-RAB2a (UniProt P53994); experiment: as above

- binding [1]: binds
- binding [2]: binds
Substance: METTL9-FLAG (from UniProt Q9EPL4 19-318) (enzyme)
